Construct, isoform or probe ends are uncertain for at least one entry. A negative result means that nothing was seen under these conditions.
Tested on: myoglobin
Test: binding assay
Details: quantum dot probe; off-target control; purified native protein; protein details: biotinylated, immobilised on streptavidin plate; single-stranded DNA

Sequence: CAAGCAGAAGACGGCATACGAGATCATGCTTCCCCAGGGAGATGGTTTGCCGGTGGGCAGGTTTAGGGTCTGCTCGGGATTGCGGAGGAACATGCGTCGCAAACGTGTAGATCTCGGTGGTCGCCGTATCATT [P7-B1-P5 aptamer]
- binding result: no binding

Source: patent publication US20220162684
